# Assay results: PubChem BioAssay AID540256 (National Center for Advancing Translational Sciences (NCATS), 2011)
# Among all 300,000 compounds or so, about 3,700 (1.2%) were called active. The shares of active, inactive and inconclusive entries below differ from those in the screen. Calls come from the whole dose curve; tested in HEK293 cells. Where the call is inconclusive, the potency comes from a doubtful curve fit.
# Test: qHTS for Inhibitors of binding or entry into cells for Lassa Virus; note: nearly all actives have a fitted effect of over 50% in size
# Settings: Lassa virus pseudotype entry inhibition, cell reporter; series mostly up to 37.9 µM
# Potency is the fitted concentration of half-maximal effect.
row,Compound,Potency
1,COc1cc(/C=N/n2nnnc2N)cc(Cl)c1OC,inactive
2,CN(C)C(CNC(=O)c1cccc(C(F)(F)F)c1)c1ccco1 (configuration not stated),"inconclusive: 17.8 µM [activator, partial curve, poor fit]"
3,Cc1ccc(CN2CCC(CNC(=O)c3cc4ccc5cccnc5c4[nH]3)CC2)cc1,"inconclusive: 35.5 µM [inhibitor, single point]"
4,CC(C)Sc1nc2c(c(=O)[nH]c(=O)n2C)n1Cc1ccc(Cl)cc1,"inconclusive: 35.5 µM [inhibitor, single point]"
5,O=C(NCC(c1cccnc1)N1CCN(c2ccccc2)CC1)OCc1ccccc1 (configuration not stated),"inconclusive: 14.1 µM [inhibitor, single point]"
6,Cc1ccccc1N1C(=O)C(Oc2ccc(Cl)cc2)C1CNCCCOC(C)C (configuration not stated),"inconclusive: 0.891 µM [inhibitor, partial curve, poor fit]"
7,O=C(COc1cccc2cccnc12)Nc1nccs1,"inconclusive: 5.17 µM [activator, full curve]"
8,CCCCn1c(N)c(N(CCOC)C(=O)c2cc(-c3ccc(OC)cc3)nc3ccccc23)c(=O)[nH]c1=O,"inconclusive: 1.41 µM [inhibitor, full curve, poor fit]"
9,CCCCn1c(N)c(N(CC(C)C)C(=O)c2cc(C)oc2C)c(=O)[nH]c1=O,"inconclusive: 0.447 µM [activator, single point]"
10,Cc1ccc(N(CC(=O)NCC(C)c2ccccc2)S(=O)(=O)N(C)C)cc1 (configuration not stated),"inconclusive: 0.562 µM [inhibitor, full curve, poor fit]"
11,CC(C)(C)c1ccc(C(=O)NCC(c2cccs2)S(=O)(=O)c2ccc(F)cc2)cc1 (configuration not stated),"inconclusive: 11.2 µM [inhibitor, partial curve, poor fit]"
12,O=C(CN1CCOCC1)Nc1ccc(S(=O)(=O)N2CCCCCC2)cc1,inactive
13,COc1ccc(NC(=O)C2CCN(c3cc(C)nc(-c4ccccc4)n3)CC2)cc1,"inconclusive: 10.3 µM [inhibitor, partial curve, poor fit]"
14,CC1CCN(S(=O)(=O)c2ccc(NC(=O)C3CSC4(C)CCC(=O)N34)cc2)CC1 (configuration not stated),inactive
15,CCCCC(CC)CNC(=O)c1ccc2c(=O)n(CCOC)c(=O)[nH]c2c1 (configuration not stated),"inconclusive: 2.51 µM [inhibitor, full curve, poor fit]"
16,c1ccc(-c2nc(N3CCOCC3)c3ccccc3n2)nc1,"inconclusive: 11.2 µM [inhibitor, partial curve, poor fit]"
17,CCCCC(c1nnnn1Cc1ccco1)N1CCN(c2nc3ccccc3s2)CC1 (configuration not stated),"inconclusive: 11.2 µM [inhibitor, partial curve, poor fit]"
18,Cc1ccc2c(n1)sc1c(-c3ccc(Br)cc3)c(C#N)c(N)nc12,"inconclusive: 6.31 µM [inhibitor, full curve, poor fit]"
19,Nc1cc2sc(-c3ccc(C(=O)O)cc3)nc2cc1Cl,active: 13 µM
20,COc1ccc(N(CC(=O)NC2CCCCCC2)S(=O)(=O)c2c(C)nn(C)c2C)cc1,"inconclusive: 29.1 µM [inhibitor, partial curve, poor fit]"
21,COc1ccc(-c2noc(N3CCN(c4cccc(Cl)c4)CC3)n2)cc1OC,inactive

# Reformatted as tab-separated lines: part of the list above.
row	Compound	Potency
8	CCCCn1c(N)c(N(CCOC)C(=O)c2cc(-c3ccc(OC)cc3)nc3ccccc23)c(=O)[nH]c1=O	inconclusive: 1.41 µM [inhibitor, full curve, poor fit]
9	CCCCn1c(N)c(N(CC(C)C)C(=O)c2cc(C)oc2C)c(=O)[nH]c1=O	inconclusive: 0.447 µM [activator, single point]

# Carrying on:

row,Compound,Potency
1,C=CCNc1nnc(SC2CC(=O)N(c3ccc(OC)cc3)C2=O)s1 (configuration not stated),inactive
2,Cc1cc(OCC(=O)Nc2cc(-c3nc4ccccc4[nH]3)ccc2C)ccc1Cl,inactive
3,CCc1ccc(S(=O)(=O)n2c(C)nc3ccccc32)cc1,"inconclusive: 1.26 µM [inhibitor, single point]"
4,COc1ccc(/C(=N/Nc2ncnc3ccccc23)C(=O)O)cc1,"inconclusive: 22.4 µM [inhibitor, single point]"
5,CC(OC(=O)c1cccc(S(=O)(=O)Nc2cccc(C(F)(F)F)c2)c1)C(=O)Nc1ccc2c(c1)OCCO2 (configuration not stated),"inconclusive: 29.1 µM [inhibitor, single point]"
6,Cc1cc(=O)n(Cc2ccc(OC(C)C)cc2)c(=S)[nH]1,"inconclusive: 35.5 µM [inhibitor, single point]"
7,Cc1ccnc(Nc2nc(-c3ccc(F)cc3)cs2)c1,"inconclusive: 12.6 µM [inhibitor, single point]"
8,COc1ccc(OCC(O)CNCCNc2nccc(C(F)(F)F)n2)cc1 (configuration not stated),"inconclusive: 0.891 µM [activator, full curve, poor fit]"
9,O=C(Nc1nnc(-c2ccccc2SCc2ccccc2F)s1)Nc1ccccc1F,inactive
10,O=C(COC(=O)CNC(=O)c1ccc(Br)o1)Nc1ccccc1OC(F)F,inactive
11,COc1cc2c(cc1OC)[C@@H]1Cc3ccc(OC)c(OC)c3CN1CC2,"inconclusive: 0.355 µM [inhibitor, partial curve, poor fit]"
12,O=c1oc2ccccc2c2c1nnn2CCO,inactive
13,CCN(CC)S(=O)(=O)c1ccc2oc(C(=O)NC(C)C)c(C)c2c1,"inconclusive: 20.6 µM [inhibitor, single point]"
14,O=C(CCN1CCOCC1)Nc1ccc2c(c1)CCC2,inactive
15,CCCN(c1ccccc1F)S(=O)(=O)c1cc(-c2cc(C)no2)ccc1C,"inconclusive: 8.91 µM [inhibitor, partial curve]"
16,COc1cc2c(cc1OC)C(C1C(=O)CC(C)(C)CC1=O)N(C(=O)CCl)CC2 (configuration not stated),"inconclusive: 20 µM [inhibitor, partial curve, poor fit]"
17,NNc1nc2ccc(F)cc2s1,"inconclusive: 18.4 µM [activator, single point]"
18,CN(c1cccc(NC(=O)CN(c2cccc(Cl)c2)S(=O)(=O)c2ccc(Cl)cc2)c1)S(C)(=O)=O,inactive
19,COc1ccccc1N1CCN(C(=O)c2cc3cc(F)ccc3[nH]2)CC1,"inconclusive: 35.5 µM [inhibitor, single point]"
20,COc1ccc(C(=O)N2CCN(C3CCC(c4ccccc4)CC3)CC2)cc1OC (configuration not stated),"inconclusive: 2.06 µM [inhibitor, partial curve, poor fit]"
21,O=C(NC1CCCC1)C(c1cccnc1)N(CCc1ccccc1)C(=O)c1ccco1 (configuration not stated),"inconclusive: 7.08 µM [inhibitor, full curve, poor fit]"
